The list shows a part of the results. Repeats are few or missing, and single values can be far off.
System: Plasmodium berghei sporozoites
Experiment: residual sporozoite gliding motility relative to DMSO control; higher = less inhibition of motility
Conditions: 10 µM; incubation time 30 min
Procedure: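 GFP-expressing Plasmodium berghei salivary gland sporozoites (about 2000 per well, 384-well plate, RPMI with 3% BSA) were incubated 30 min with MMV Malaria Box compounds at 10 uM, then imaged at 1 Hz for 30 s. Sporozoites moving more than one parasite length were counted manually and expressed as percentage residual motility relative to DMSO controls. The pilot screen was a single assay per compound; apparent hits were repeated up to two more times. 'No observable inhibition' in the pilot screen is encoded as inactive (>50% residual, active false), a coarse placeholder rather than a measured value.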

Residual sporozoite gliding motility, > 50%:
CC1CC(C)CN(C(=O)c2ccc(Cl)cc2Cl)C1 (stereo not given)
COc1ccc(-c2cn3c(C(=O)Nc4ccccc4Cl)c(-c4ccccc4)c4c3n2CCCC4)cc1
COc1ccc(-c2nc(N3CCN(C(=O)C4CCCCC4)CC3)c3c4c(sc3n2)CCCC4)cc1
CCN(CC)CCCNc1nc(-c2ccc(Cl)cc2)nc2ccccc12
COc1ccccc1CNC(=O)CCn1c(=O)[nH]c2ccsc2c1=O
CCOc1ccccc1NC(=O)CN1CCN(C(=O)c2ccco2)CC1
Fc1ccc2[nH]c3c(NCCCN4CCOCC4)ncnc3c2c1
CCCN(CCC)CC(O)COc1ccccc1C(=O)Nc1ccccc1 (stereo not given)
COc1ccc2c(c1)C1(Nc3ccccc3-c3nc4ccccc4n31)C(=O)N2 (stereo not given)
COc1ccccc1N1C(=N)SC(=Cc2ccc(OCc3ccccc3F)cc2)C1=O
O=C(NNc1cc(N2CCCC2)nc(N2CCCC2)n1)c1ccccc1
CCCCc1c(CCC)c(=N)c2ccccc2n1C
O=C(c1ccccc1F)N(Cc1ccc(Cl)cc1)c1ccccn1
O=C(CCc1ccccc1)c1ccccc1OCC(O)CN1CCCCC1 (stereo not given)
COc1ccc(NC(=O)C2c3ccccc3C(=O)N(CC(C)C)C2c2cccs2)cc1Cl (stereo not given)
O=C1CC(O)(C(F)(F)C(F)(F)F)Oc2ccccc21 (stereo not given)
O=C(CCl)NCCOc1ccc(Cl)cc1Cl
Nc1ccc(-c2nc3cc(Cc4ccc5[nH]c(-c6ccc(N)cc6)nc5c4)ccc3[nH]2)cc1
COc1ccc2nc(N)nc(C)c2c1
COc1ccc(-c2cc(=O)oc3c4c(ccc23)OCN(Cc2ccc(F)cc2)C4)cc1
CCC(c1ccccc1)c1nn2c(-c3cccs3)nnc2s1 (stereo not given)
O=C(NC1CCCC1)c1ccc(N2CCC(NCc3cccc(C(F)(F)F)c3)CC2)cc1
COc1cccc(C(=O)NC(c2ccc(C)cc2)c2cc(Cl)c3cccnc3c2O)c1 (stereo not given)
COc1ccccc1C(=O)ON=C(N)Cc1cccc2ccccc12
COc1cc(OC)cc(C(=O)Nc2ccc(-c3nc4ccccc4[nH]3)cc2)c1
Oc1ccccc1CN1CCC2(CCCN(Cc3ccccc3F)C2)C1 (stereo not given)
COc1ccc(C(=O)Nc2nonc2-c2ccc(OC)c(OC)c2)cc1Cl
Cc1cc(Nc2cccc(F)c2)nc(NCc2ccccc2)n1
COc1ccc(CCNC(=O)c2cc(S(=O)(=O)N3CC(C)CC(C)C3)ccc2Sc2ccc(F)cc2)cc1OC (stereo not given)
O=C1c2ccccc2-c2nnc(-c3ccc(Br)cc3)cc21
C[n+]1c2ccccc2nc2ccc(NCCO)cc21
CCOc1ccc(-c2nonc2NC(=O)c2cccc(C)c2)cc1OCC
Cn1c(=O)n(C)c2cc(CNCCNc3ccnc4cc(Cl)ccc34)ccc21
Oc1ccc(-c2nc(-c3ccc4oc5ccc(-c6[nH]c(-c7ccc(O)cc7)nc6-c6ccccc6)cc5c4c3)c(-c3ccccc3)[nH]2)cc1
COc1ccc(CNC(=O)c2cc3c(=O)n4ccccc4nc3n(CCc3ccccc3)c2=N)cc1
Cc1sc(NC(=O)c2ccccc2)c(C(c2cccs2)N2CCN(c3ccccc3)CC2)c1C (stereo not given)
CCCCc1c(C)nc2c(OC)cccc2c1O
CC1(c2ccccc2)Nc2ccccc2-c2nc3ccccc3n21 (stereo not given)
COc1ccc(C(=O)C2CC2c2ccc(Cl)cc2)cc1 (stereo not given)
COc1ccc(C2=C(c3ccc(OC)cc3)C3(c4ccccc4)C(=O)C2(c2ccccc2)C2C(=O)N(c4ccc(C)cc4)C(=O)C23)cc1 (stereo not given)

An excerpt from the list above:
Residual sporozoite gliding motility, > 50%:
COc1ccc(NC(=O)C2c3ccccc3C(=O)N(CC(C)C)C2c2cccs2)cc1Cl (stereo not given)
O=C1CC(O)(C(F)(F)C(F)(F)F)Oc2ccccc21 (stereo not given)
